This note sets out measurements from paper PMC5628404.

Protein sequences, listed by entry. Tags and fused reporters are not part of them.
UniProt P51668: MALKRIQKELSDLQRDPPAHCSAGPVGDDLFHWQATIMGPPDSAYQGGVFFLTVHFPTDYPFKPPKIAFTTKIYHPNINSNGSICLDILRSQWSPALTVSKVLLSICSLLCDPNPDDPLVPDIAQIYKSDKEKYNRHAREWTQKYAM

This experiment deals with UBE2D1 (human) (UniProt P51668). Kind of experiment: SPR; Biacore; BRAP and UBE2D1 (Supplementary Data S3B); who was immobilised is not given; both purified. (In general: SPR reads the build-up and loss of mass on a sensor chip optically.)

Results are given in words; binding and its absence hold for the method and conditions named.

B1: BRAP (1–592) (full-length) (protein, UniProt Q7Z569 1-592)
chain: MSVSLVVIRLELAEHSPVPAGFGFSAAAGEMSDEEIKKTTLASAVACLEGKSPGEKVAIIHQHLGRREMTDVIIETMKSNPDELKTTVEERKSSEASPTAQRSKDHSKECINAAPDSPSKQLPDQISFFSGNPSVEIVHGIMHLYKTNKMTSLKEDVRRSAMLCILTVPAAMTSHDLMKFVAPFNEVIEQMKIIRDSTPNQYMVLIKFRAQADADSFYMTCNGRQFNSIEDDVCQLVYVERAEVLKSEDGASLPVMDLTELPKCTVCLERMDESVNGILTTLCNHSFHSQCLQRWDDTTCPVCRYCQTPEPVEENKCFECGVQENLWICLICGHIGCGRYVSRHAYKHFEETQHTYAMQLTNHRVWDYAGDNYVHRLVASKTDGKIVQYECEGDTCQEEKIDALQLEYSYLLTSQLESQRIYWENKIVRIEKDTAEEINNMKTKFKETIEKCDNLEHKLNDLLKEKQSVERKCTQLNTKVAKLTNELKEEQEMNKCLRANQVLLQNKLKEEERVLKETCDQKDLQITEIQEQLRDVMFYLETQQKINHLPAETRQEIQEGQINIAMASASSPASSGGSGKLPSRKGRSKRGK
With B1, the binding result is on record as “no binding”.
